In this assay the target is T1, recombinant mouse His-tagged IL2-RB (mouse (methods; results and legend say human)) (UniProt P16297).
T1 sequence: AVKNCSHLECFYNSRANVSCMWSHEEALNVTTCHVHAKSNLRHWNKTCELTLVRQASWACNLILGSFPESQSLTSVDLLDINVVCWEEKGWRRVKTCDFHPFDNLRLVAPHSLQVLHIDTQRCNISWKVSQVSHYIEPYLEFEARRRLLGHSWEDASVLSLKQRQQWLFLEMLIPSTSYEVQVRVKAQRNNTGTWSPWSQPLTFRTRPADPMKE
The assay is described as follows: ELISA; plates coated with 2 µg/mL His-tagged IL2-RB overnight at 4°C; serially diluted antibody-cytokine chimera or IL2-Fc 2 h at 37°C; detection with HRP anti-mouse IgG H+L; both purified. (In general: ELISA stands for enzyme-linked immunosorbent assay.)

Results are given in words; binding and its absence hold for the method and conditions named. Some binding calls cover weakened binding; strength is not graded here. Tags and fused reporters may be left off the sequences shown.

B1: recombinant mouse Fc-tagged IL2 (IL2-Fc) (Fc fusion, UniProt P04351 21-169)
chain: APTSSSTSSSTAEAQQQQQQQQQQQQHLEQLLMDLQELLSRMENYRNLKLPRMLTFKFYLPKQATELKDLQCLEDELGPLRHVLDLTQSKSFQLEDAENFISNIRVTVVKLKGSDNTFECQFDDESATVVDFLRRWIAFCQSIISTSPQ
Regarding B1, the binding entry was “binds”.

The record behind these values is paper PMC9997082.
